Measurements: publication doi:10.1101/2020.05.20.107664
Changes are numbered by the printed parent chain. These are yes or no findings as the source states them, for the method shown. In cells and extracts the contact can be indirect. Some binding calls cover weakened binding; strength is not graded here. Tags and fused reporters may be left off the sequences shown.

By UniProt entry, the sequences of proteins in these tests, tags left out.
UniProt Q64310: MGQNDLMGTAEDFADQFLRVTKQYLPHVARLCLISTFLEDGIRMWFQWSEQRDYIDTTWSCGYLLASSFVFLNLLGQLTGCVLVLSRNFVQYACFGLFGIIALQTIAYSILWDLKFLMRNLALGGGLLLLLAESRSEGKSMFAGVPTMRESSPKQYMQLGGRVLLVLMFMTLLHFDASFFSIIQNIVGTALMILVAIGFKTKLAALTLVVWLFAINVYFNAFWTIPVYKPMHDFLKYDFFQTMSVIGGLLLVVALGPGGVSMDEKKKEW

Columns and labels:
[1] = biological target: T1, wild-type α-COP (α-COP-FLAG), transfected in HEK293T (mouse) (UniProt Q8CIE6); assay: co-IP
T1 sequence: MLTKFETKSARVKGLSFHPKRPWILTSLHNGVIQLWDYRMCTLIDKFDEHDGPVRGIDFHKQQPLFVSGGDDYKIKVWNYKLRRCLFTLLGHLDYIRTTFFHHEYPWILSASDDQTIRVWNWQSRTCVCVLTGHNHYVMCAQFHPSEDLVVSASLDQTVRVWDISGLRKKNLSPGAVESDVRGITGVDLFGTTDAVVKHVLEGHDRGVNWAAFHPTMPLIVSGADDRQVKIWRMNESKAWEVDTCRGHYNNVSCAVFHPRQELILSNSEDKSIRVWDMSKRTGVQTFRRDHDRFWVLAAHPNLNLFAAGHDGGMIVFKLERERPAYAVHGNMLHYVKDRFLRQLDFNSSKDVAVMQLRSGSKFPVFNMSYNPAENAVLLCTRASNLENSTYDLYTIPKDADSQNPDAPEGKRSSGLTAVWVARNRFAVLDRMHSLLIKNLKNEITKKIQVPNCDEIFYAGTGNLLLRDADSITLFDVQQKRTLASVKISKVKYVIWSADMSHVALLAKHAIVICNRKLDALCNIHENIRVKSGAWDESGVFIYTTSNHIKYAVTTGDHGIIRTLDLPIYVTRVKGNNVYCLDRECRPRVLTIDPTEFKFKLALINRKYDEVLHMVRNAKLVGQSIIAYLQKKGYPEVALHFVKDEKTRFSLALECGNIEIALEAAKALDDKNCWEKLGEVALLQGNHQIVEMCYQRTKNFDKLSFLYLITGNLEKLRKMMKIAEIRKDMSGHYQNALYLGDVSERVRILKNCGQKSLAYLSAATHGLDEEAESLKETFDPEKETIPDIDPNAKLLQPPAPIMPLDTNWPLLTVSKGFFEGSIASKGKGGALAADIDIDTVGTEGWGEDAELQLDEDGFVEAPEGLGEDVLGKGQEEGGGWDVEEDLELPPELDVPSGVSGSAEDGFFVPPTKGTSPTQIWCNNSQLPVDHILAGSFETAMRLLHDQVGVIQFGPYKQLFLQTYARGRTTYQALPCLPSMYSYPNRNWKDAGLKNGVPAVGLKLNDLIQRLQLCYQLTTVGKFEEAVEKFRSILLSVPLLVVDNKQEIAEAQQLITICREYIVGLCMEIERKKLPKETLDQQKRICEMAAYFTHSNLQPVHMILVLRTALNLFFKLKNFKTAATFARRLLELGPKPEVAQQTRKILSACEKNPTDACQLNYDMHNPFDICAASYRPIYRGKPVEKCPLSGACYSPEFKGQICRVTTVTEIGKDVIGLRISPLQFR

[2] = biological target: T2, α-COP variant E241K (α-COP-FLAG), transfected in HEK293T (mouse) (UniProt Q8CIE6); assay: co-IP
T2 sequence: T1 sequence with E241K

binding [1]: binds
binding [2]: binds
Substance: Surf4 (wild type), transfected in HEK293T (from UniProt Q64310 1-269)
